PubChem BioAssay AID686938, Drosophila RNAi Screening Center | 2013
Purpose: 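Looking for CRAC channel components and the factors controlling them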 (primary screen). System: Drosophila S2R+ cells. Knock-down reagent: long dsRNA against Drosophila genes, about 0.25 µg dsRNA per well, roughly 10,000 cells. Timing: 5 days of knock-down before the calcium assay. Challenge: thapsigargin (SERCA pump blocker) to empty calcium stores; entry signal taken 4 min after adding it. Detection: 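Duplicate raw fluo-4 intensities per well from a plate reader, at rest and four minutes after thapsigargin emptied calcium stores; entry-to-rest ratio filled for only some wells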. Direction: calcium entry signal: higher = stronger calcium signal after store depletion; entry to resting ratio: higher = more calcium entry relative to resting level; resting calcium signal: higher = higher resting calcium signal. Units: calcium entry signal in fluorescence units; resting calcium signal in fluorescence units. Active means: 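Called when the plate z-score of the entry-to-rest ratio, mean of duplicates, falls below −3; wells with low overall dye signal (Fmax z below −2) or more than five off-targets excluded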. Meaning of the calls: active = strongly reduced calcium entry; inactive = no strong reduction.
In all, the deposit lists about 23,000 reagents; shown is a random part of those that have a named target and a result. Over the whole deposit, 75 (0.33%) were called active. 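Raw plate signals without normalisation; calls rest on plate z-scores that were not deposited; ratio present for only 364 wells.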 A plus sign joins genes that one reagent is predicted to hit. No sequences are given here. Not given: the dose of the treatment.

mbo (members only) [DRSC16123] → calcium entry signal, replicate 1 = 3.46e7; calcium entry signal, replicate 2 = 3.92e7; resting calcium signal, replicate 1 = 1.56e7; resting calcium signal, replicate 2 = 1.72e7; Outcome = inactive
Npc2h (Niemann-Pick type C-2h) [DRSC14297] → calcium entry signal, replicate 1 = 4.28e7; calcium entry signal, replicate 2 = 6.25e7; resting calcium signal, replicate 1 = 2.13e7; resting calcium signal, replicate 2 = 2.71e7; Outcome = inactive
hmw (hemingway) [DRSC16277] → calcium entry signal, replicate 1 = 4.89e7; calcium entry signal, replicate 2 = 4.40e7; resting calcium signal, replicate 1 = 2.23e7; resting calcium signal, replicate 2 = 1.82e7; Outcome = inactive
Alp9 (Alkaline phosphatase 9) [DRSC10486] → calcium entry signal, replicate 1 = 3.80e7; calcium entry signal, replicate 2 = 2.60e7; resting calcium signal, replicate 1 = 2.52e7; resting calcium signal, replicate 2 = 1.06e7; Outcome = inactive
CG9004 [DRSC08617] → calcium entry signal, replicate 1 = 2.83e7; calcium entry signal, replicate 2 = 3.07e7; resting calcium signal, replicate 1 = 1.62e7; resting calcium signal, replicate 2 = 1.67e7; Outcome = inactive
Ogg1 (8-oxoguanine DNA glycosylase) [DRSC17738] → calcium entry signal, replicate 1 = 2.97e7; calcium entry signal, replicate 2 = 3.23e7; resting calcium signal, replicate 1 = 1.38e7; resting calcium signal, replicate 2 = 1.40e7; Outcome = inactive
otk (off-track) [DRSC07658] → calcium entry signal, replicate 1 = 3.30e7; calcium entry signal, replicate 2 = 3.93e7; resting calcium signal, replicate 1 = 1.72e7; resting calcium signal, replicate 2 = 1.99e7; Outcome = inactive

As entered above.
Value of CG9004 [DRSC08617] in “calcium entry signal, replicate 1”: 2.83e7
Under “calcium entry signal, replicate 2”, Npc2h (Niemann-Pick type C-2h) [DRSC14297] has 6.25e7

The results go on.
CG14567 [DRSC11728] → calcium entry signal, replicate 1 = 3.62e7; calcium entry signal, replicate 2 = 5.58e7; resting calcium signal, replicate 1 = 1.62e7; resting calcium signal, replicate 2 = 2.25e7; Outcome = inactive
tst (twister) [DRSC14212] → calcium entry signal, replicate 1 = 4.16e7; calcium entry signal, replicate 2 = 3.51e7; resting calcium signal, replicate 1 = 2.04e7; resting calcium signal, replicate 2 = 1.70e7; Outcome = inactive
Nprl3 (Nitrogen permease regulator-like 3) [DRSC11044] → calcium entry signal, replicate 1 = 2.74e7; calcium entry signal, replicate 2 = 3.63e7; resting calcium signal, replicate 1 = 1.32e7; resting calcium signal, replicate 2 = 2.53e7; Outcome = inactive
CG43149 [DRSC07859] → calcium entry signal, replicate 1 = 4.73e7; calcium entry signal, replicate 2 = 3.09e7; resting calcium signal, replicate 1 = 2.06e7; resting calcium signal, replicate 2 = 1.50e7; Outcome = inactive
CG9886 [DRSC00732] → calcium entry signal, replicate 1 = 3.76e7; resting calcium signal, replicate 1 = 2.09e7; Outcome = inactive
Cyp4g1 (Cytochrome P450 4g1) [DRSC18459] → calcium entry signal, replicate 1 = 3.43e7; calcium entry signal, replicate 2 = 4.26e7; resting calcium signal, replicate 1 = 1.67e7; resting calcium signal, replicate 2 = 1.94e7; Outcome = inactive
Tsp42Ee (Tetraspanin 42Ee) [DRSC05947] → calcium entry signal, replicate 1 = 5.55e7; calcium entry signal, replicate 2 = 4.19e7; resting calcium signal, replicate 1 = 2.33e7; resting calcium signal, replicate 2 = 1.72e7; Outcome = inactive
Trpml + CG42638 [DRSC11032] → calcium entry signal, replicate 1 = 5.14e7; calcium entry signal, replicate 2 = 4.26e7; resting calcium signal, replicate 1 = 4.43e7; resting calcium signal, replicate 2 = 2.83e7; Outcome = active
Nab2 (Nuclear polyadenosine RNA-binding 2) [DRSC14158] → calcium entry signal, replicate 1 = 3.06e7; calcium entry signal, replicate 2 = 3.04e7; resting calcium signal, replicate 1 = 1.45e7; resting calcium signal, replicate 2 = 1.22e7; Outcome = inactive
CG14625 [DRSC18633] → calcium entry signal, replicate 1 = 4.05e7; calcium entry signal, replicate 2 = 6.50e7; entry to resting ratio = 2.1; resting calcium signal, replicate 1 = 1.93e7; resting calcium signal, replicate 2 = 2.72e7; Outcome = inactive
CG8188 [DRSC20090] → calcium entry signal, replicate 1 = 2.99e7; calcium entry signal, replicate 2 = 3.28e7; resting calcium signal, replicate 1 = 1.60e7; resting calcium signal, replicate 2 = 1.66e7; Outcome = inactive
CG13051 [DRSC09932] → calcium entry signal, replicate 1 = 3.29e7; calcium entry signal, replicate 2 = 4.48e7; resting calcium signal, replicate 1 = 1.68e7; resting calcium signal, replicate 2 = 1.77e7; Outcome = inactive
HUWE1 [DRSC20089] → calcium entry signal, replicate 1 = 2.89e7; calcium entry signal, replicate 2 = 3.35e7; resting calcium signal, replicate 1 = 1.55e7; resting calcium signal, replicate 2 = 1.43e7; Outcome = inactive
Mnt [DRSC17894] → calcium entry signal, replicate 1 = 4.17e7; calcium entry signal, replicate 2 = 4.38e7; resting calcium signal, replicate 1 = 1.91e7; resting calcium signal, replicate 2 = 2.25e7; Outcome = inactive
Mnt [DRSC18480] → calcium entry signal, replicate 1 = 1.80e7; calcium entry signal, replicate 2 = 2.77e7; resting calcium signal, replicate 1 = 9.22e6; resting calcium signal, replicate 2 = 1.40e7; Outcome = inactive
